Measurements reported in PubChem BioAssay AID1259405 (NCATS, 2018)
Aim: 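Mouse-designed siRNAs used to find CHO productivity engineering targets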 (primary screen). Cell system: Chinese hamster CHO-K1 ovary cells with stable secreted eGFP expression. Knock-down reagent: single siRNA against mouse genes, 0.8 pmol siRNA per well (2 µl of 400 nM stock). Duration: 3 days. Detection: 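Percent of the per-plate non-targeting control median for intracellular GFP per well by laser scanning cytometry and for cell viability by ATP luminescence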. Scale: GFP, % of control: higher = more GFP per well, higher productivity; viability (ATP), % of control: higher = more viable cells (more ATP). Rule for the call: 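a knock-down is called active if GFP reaches 120% or more of non-targeting control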.
Here is a random part of about 50,000 reagents. In the full data, about 4,000 (8%) got an active call. 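Mouse siRNA library applied to hamster cells; one well for each siRNA.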 The numbers tell different reagents against one gene apart.

| target | reagent no. | GFP, % of control | viability (ATP), % of control | call |
| --- | --- | --- | --- | --- |
| Acot8 | 1 | 79.5 | 86.8 | inactive |
| Acot8 | 2 | 62.1 | 61.8 | inactive |
| Acot8 | 3 | 65.6 | 101 | inactive |
| Sh3rf1 | 1 | 82.1 | 67.2 | inactive |
| Sh3rf1 | 2 | 86.9 | 51.4 | inactive |
| Sh3rf1 | 3 | 76.9 | 80.7 | inactive |
| Usp7 | 1 | 91.2 | 63.5 | inactive |
| Usp7 | 2 | 27.1 | 22.8 | inactive |
| Usp7 | 3 | 45 | 42.4 | inactive |
| Haglr | 1 | 81.9 | 68.7 | inactive |
| Haglr | 2 | 90.4 | 102 | inactive |
| Haglr | 3 | 120 | 140 | active |
| Fgd3 | 1 | 163 | 140 | active |
| Fgd3 | 2 | 65 | 69.3 | inactive |
| Fgd3 | 3 | 46.5 | 67 | inactive |
| Corin | 1 | 88.1 | 88.5 | inactive |
| Corin | 2 | 48.3 | 33.4 | inactive |
| Corin | 3 | 51.6 | 59.9 | inactive |
| Vmn1r56 | 1 | 71.7 | 60.2 | inactive |
| Vmn1r56 | 2 | 75.5 | 58.9 | inactive |
| Vmn1r56 | 3 | 62.2 | 70.1 | inactive |
| Pced1a | 1 | 79.3 | 65.1 | inactive |
| Pced1a | 2 | 72.4 | 68.1 | inactive |
| Pced1a | 3 | 81.8 | 96.7 | inactive |
| Ackr4 | 1 | 85.1 | 63.3 | inactive |
| Ackr4 | 2 | 50.4 | 42.5 | inactive |
| Ackr4 | 3 | 34 | 57.1 | inactive |
| Cnpy3 | 1 | 93.5 | 120 | inactive |
| Cnpy3 | 2 | 89.9 | 101 | inactive |
| Cnpy3 | 3 | 85.4 | 91.8 | inactive |
| Pacrgl | 1 | 83.7 | 86.8 | inactive |
| Pacrgl | 2 | 77.4 | 86.4 | inactive |
| Pacrgl | 3 | 65.1 | 70.4 | inactive |
| Gabrq | 1 | 107 | 130 | inactive |
| Gabrq | 2 | 52.1 | 58.8 | inactive |
| Gabrq | 3 | 33.2 | 38.7 | inactive |

Hits, of those listed so far:
| target | reagent no. | GFP, % of control | viability (ATP), % of control | call |
| --- | --- | --- | --- | --- |
| Haglr | 3 | 120 | 140 | active |
| Fgd3 | 1 | 163 | 140 | active |
